Results published in publication PMC7181604, “Arabidopsis FHY3 and FAR1 integrate light and strigolactone signaling to regulate branching”.
These are yes or no findings as the source states them, for the method shown. For some assays here: In cells and extracts the contact can be indirect. Some results given as binding are weak or reduced against the parent protein; the word gives no strength. Where a sequence is shown, tags or fusion partners need not be part of it.

T1: SPL15 split-luciferase fusion (LCI) (Arabidopsis thaliana) (UniProt Q9M2Q6)
T1 sequence: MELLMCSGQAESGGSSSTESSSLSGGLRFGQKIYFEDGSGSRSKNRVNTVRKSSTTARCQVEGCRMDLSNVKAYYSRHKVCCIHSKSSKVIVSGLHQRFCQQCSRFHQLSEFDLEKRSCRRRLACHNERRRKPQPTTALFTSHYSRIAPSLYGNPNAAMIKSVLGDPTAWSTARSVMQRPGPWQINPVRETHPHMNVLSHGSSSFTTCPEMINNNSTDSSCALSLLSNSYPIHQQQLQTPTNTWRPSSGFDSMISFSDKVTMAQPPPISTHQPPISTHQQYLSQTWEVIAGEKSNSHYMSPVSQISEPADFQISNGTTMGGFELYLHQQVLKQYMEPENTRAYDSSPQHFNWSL

T2: SPL9 split-luciferase fusion (LCI) (Arabidopsis thaliana) (UniProt Q700W2)
T2 sequence: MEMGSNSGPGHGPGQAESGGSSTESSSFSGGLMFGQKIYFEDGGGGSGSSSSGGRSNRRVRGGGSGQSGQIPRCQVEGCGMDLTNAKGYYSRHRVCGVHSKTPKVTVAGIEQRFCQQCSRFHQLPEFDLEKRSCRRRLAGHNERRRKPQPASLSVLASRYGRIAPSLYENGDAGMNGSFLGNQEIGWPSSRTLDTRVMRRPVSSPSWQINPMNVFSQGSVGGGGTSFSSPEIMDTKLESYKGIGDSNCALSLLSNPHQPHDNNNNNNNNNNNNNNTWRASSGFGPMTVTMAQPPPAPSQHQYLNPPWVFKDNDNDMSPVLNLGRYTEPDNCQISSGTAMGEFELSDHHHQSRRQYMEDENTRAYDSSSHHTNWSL

T3: SPL15 (yeast two-hybrid fusion) (Arabidopsis thaliana) (UniProt Q9M2Q6)
T3 sequence: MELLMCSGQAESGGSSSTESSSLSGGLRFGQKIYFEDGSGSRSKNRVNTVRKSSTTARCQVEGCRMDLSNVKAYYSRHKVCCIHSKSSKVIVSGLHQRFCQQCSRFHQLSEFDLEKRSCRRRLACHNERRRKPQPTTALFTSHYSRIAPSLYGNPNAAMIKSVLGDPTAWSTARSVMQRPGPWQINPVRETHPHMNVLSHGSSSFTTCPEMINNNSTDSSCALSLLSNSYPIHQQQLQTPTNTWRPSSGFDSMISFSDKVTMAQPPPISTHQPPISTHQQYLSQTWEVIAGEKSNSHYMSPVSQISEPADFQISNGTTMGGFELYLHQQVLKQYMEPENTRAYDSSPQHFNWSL

T4: BRC1 (yeast two-hybrid fusion) (Arabidopsis thaliana) (UniProt A1YKT1)
T4 sequence: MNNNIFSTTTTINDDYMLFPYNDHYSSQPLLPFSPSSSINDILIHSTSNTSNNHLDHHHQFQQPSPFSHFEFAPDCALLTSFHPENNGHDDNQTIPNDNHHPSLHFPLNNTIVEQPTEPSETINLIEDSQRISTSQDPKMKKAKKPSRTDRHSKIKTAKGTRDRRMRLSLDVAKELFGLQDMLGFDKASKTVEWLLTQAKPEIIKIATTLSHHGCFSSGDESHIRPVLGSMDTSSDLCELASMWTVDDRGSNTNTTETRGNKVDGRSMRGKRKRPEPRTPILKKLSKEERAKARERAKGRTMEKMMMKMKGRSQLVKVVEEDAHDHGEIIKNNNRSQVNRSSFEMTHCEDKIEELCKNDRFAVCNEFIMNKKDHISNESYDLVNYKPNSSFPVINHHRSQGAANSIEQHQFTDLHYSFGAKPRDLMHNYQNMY

T5: SPL9 (yeast two-hybrid fusion) (Arabidopsis thaliana) (UniProt Q700W2)
T5 sequence: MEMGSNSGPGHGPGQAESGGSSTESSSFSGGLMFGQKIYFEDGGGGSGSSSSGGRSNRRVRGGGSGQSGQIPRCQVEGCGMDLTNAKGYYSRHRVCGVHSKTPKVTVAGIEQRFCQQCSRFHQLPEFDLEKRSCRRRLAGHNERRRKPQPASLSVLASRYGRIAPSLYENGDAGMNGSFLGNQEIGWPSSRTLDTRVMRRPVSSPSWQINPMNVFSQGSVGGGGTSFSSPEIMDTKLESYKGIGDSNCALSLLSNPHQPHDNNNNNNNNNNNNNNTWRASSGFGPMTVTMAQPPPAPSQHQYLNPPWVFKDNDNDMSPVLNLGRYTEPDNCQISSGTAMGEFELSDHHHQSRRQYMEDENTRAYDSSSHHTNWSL

B1: FHY3 split-luciferase fusion (LCI) (protein, UniProt Q9LIE5 1-839)
chain: MDIDLRLHSGDLCKGDDEDRGLDNVLHNEEDMDIGKIEDVSVEVNTDDSVGMGVPTGELVEYTEGMNLEPLNGMEFESHGEAYSFYQEYSRAMGFNTAIQNSRRSKTTREFIDAKFACSRYGTKREYDKSFNRPRARQSKQDPENMAGRRTCAKTDCKASMHVKRRPDGKWVIHSFVREHNHELLPAQAVSEQTRKIYAAMAKQFAEYKTVISLKSDSKSSFEKGRTLSVETGDFKILLDFLSRMQSLNSNFFYAVDLGDDQRVKNVFWVDAKSRHNYGSFCDVVSLDTTYVRNKYKMPLAIFVGVNQHYQYMVLGCALISDESAATYSWLMETWLRAIGGQAPKVLITELDVVMNSIVPEIFPNTRHCLFLWHVLMKVSENLGQVVKQHDNFMPKFEKCIYKSGKDEDFARKWYKNLARFGLKDDQWMISLYEDRKKWAPTYMTDVLLAGMSTSQRADSINAFFDKYMHKKTSVQEFVKVYDTVLQDRCEEEAKADSEMWNKQPAMKSPSPFEKSVSEVYTPAVFKKFQIEVLGAIACSPREENRDATCSTFRVQDFENNQDFMVTWNQTKAEVSCICRLFEYKGYLCRHTLNVLQCCHLSSIPSQYILKRWTKDAKSRHFSGEPQQLQTRLLRYNDLCERALKLNEEASLSQESYNIAFLAIEGAIGNCAGINTSGRSLPDVVTSPTQGLISVEEDNHSRSAGKTSKKKNPTKKRKVNPEQDVMPVAAPESLQQMDKLSPRTVGIESYYGTQQSVQGMVQLNLMGPTRDNFYGNQQTMQGLRQLNSIAPSYDSYYGPQQGIHGQGVDFFRPANFSYDIRDDPNVRTTQLHEDASRHS
B2: FAR1 split-luciferase fusion (LCI) (protein, UniProt Q9SWG3 1-827)
chain: MDLQENLVSDAGDDHMVDIVVEPHSNRDIGIVDEFNIGGDVGFSGDLDLEPRNGIDFDTHEAAYIFYQEYAKSMGFTTSIKNSRRSKKTKDFIDAKFACSRYGVTPESESSGSSSRRSTVKKTDCKASMHVKRRPDGKWIIHEFVKDHNHELLPALAYHFRIQRNVKLAEKNNIDILHAVSERTKKMYVEMSRQSGGYKNIGSLLQTDVSSQVDKGRYLALEEGDSQVLLEYFKRIKKENPKFFYAIDLNEDQRLRNLFWADAKSRDDYLSFNDVVSFDTTYVKFNDKLPLALFIGVNHHSQPMLLGCALVADESMETFVWLIKTWLRAMGGRAPKVILTDQDKFLMSAVSELLPNTRHCFALWHVLEKIPEYFSHVMKRHENFLLKFNKCIFRSWTDDEFDMRWWKMVSQFGLENDEWLLWLHEHRQKWVPTFMSDVFLAGMSTSQRSESVNSFFDKYIHKKITLKEFLRQYGVILQNRYEEESVADFDTCHKQPALKSPSPWEKQMATTYTHTIFKKFQVEVLGVVACHPRKEKEDENMATFRVQDCEKDDDFLVTWSKTKSELCCFCRMFEYKGFLCRHALMILQMCGFASIPPQYILKRWTKDAKSGVLAGEGADQIQTRVQRYNDLCSRATELSEEGCVSEENYNIALRTLVETLKNCVDMNNARNNITESNSQLNNGTHEEENQVMAGVKATKKKTVYRKRKGQQEASQMLESQQSLQPMETISSEAMDMNGYYGPQQNVQGLLNLMEPPHEGYYVDQRTIQGLGQLNSIAPAQDSFFTNQQAMSGMVGQIDFRPPPNFTYTLQEEHLSSAQLPGSSSRQL
B3: SMXL6 (yeast two-hybrid fusion) (protein, UniProt Q9LML2 1-979)
chain: MPTPVTTARECLTEEAARALDDAVVVARRRSHAQTTSLHAVSALLAMPSSILREVCVSRAARSVPYSSRLQFRALELCVGVSLDRLPSSKSPATEEDPPVSNSLMAAIKRSQANQRRHPESYHLQQIHASNNGGGGCQTTVLKVELKYFILSILDDPIVNRVFGEAGFRSSEIKLDVLHPPVTQLSSRFSRGRCPPLFLCNLPNSDPNREFPFSGSSGFDENSRRIGEVLGRKDKKNPLLIGNCANEALKTFTDSINSGKLGFLQMDISGLSLISIEKEISEILADGSKNEEEIRMKVDDLGRTVEQSGSKSGIVLNLGELKVLTSEANAALEILVSKLSDLLKHESKQLSFIGCVSSNETYTKLIDRFPTIEKDWDLHVLPITASTKPSTQGVYPKSSLMGSFVPFGGFFSSTSNFRVPLSSTVNQTLSRCHLCNEKYLQEVAAVLKAGSSLSLADKCSEKLAPWLRAIETKEDKGITGSSKALDDANTSASQTAALQKKWDNICQSIHHTPAFPKLGFQSVSPQFPVQTEKSVRTPTSYLETPKLLNPPISKPKPMEDLTASVTNRTVSLPLSCVTTDFGLGVIYASKNQESKTTREKPMLVTLNSSLEHTYQKDFKSLREILSRKVAWQTEAVNAISQIICGCKTDSTRRNQASGIWLALLGPDKVGKKKVAMTLSEVFFGGKVNYICVDFGAEHCSLDDKFRGKTVVDYVTGELSRKPHSVVLLENVEKAEFPDQMRLSEAVSTGKIRDLHGRVISMKNVIVVVTSGIAKDNATDHVIKPVKFPEEQVLSARSWKLQIKLGDATKFGVNKRKYELETAQRAVKVQRSYLDLNLPVNETEFSPDHEAEDRDAWFDEFIEKVDGKVTFKPVDFDELAKNIQEKIGSHFERCFGSETHLELDKEVILQILAASWSSLSSGEEEGRTIVDQWMQTVLARSFAEAKQKYGSNPMLGVKLVASSSGLASGVELPAKVDVIW
B4: SMXL6 split-luciferase fusion (LCI) (protein, UniProt Q9LML2 1-979)
chain: MPTPVTTARECLTEEAARALDDAVVVARRRSHAQTTSLHAVSALLAMPSSILREVCVSRAARSVPYSSRLQFRALELCVGVSLDRLPSSKSPATEEDPPVSNSLMAAIKRSQANQRRHPESYHLQQIHASNNGGGGCQTTVLKVELKYFILSILDDPIVNRVFGEAGFRSSEIKLDVLHPPVTQLSSRFSRGRCPPLFLCNLPNSDPNREFPFSGSSGFDENSRRIGEVLGRKDKKNPLLIGNCANEALKTFTDSINSGKLGFLQMDISGLSLISIEKEISEILADGSKNEEEIRMKVDDLGRTVEQSGSKSGIVLNLGELKVLTSEANAALEILVSKLSDLLKHESKQLSFIGCVSSNETYTKLIDRFPTIEKDWDLHVLPITASTKPSTQGVYPKSSLMGSFVPFGGFFSSTSNFRVPLSSTVNQTLSRCHLCNEKYLQEVAAVLKAGSSLSLADKCSEKLAPWLRAIETKEDKGITGSSKALDDANTSASQTAALQKKWDNICQSIHHTPAFPKLGFQSVSPQFPVQTEKSVRTPTSYLETPKLLNPPISKPKPMEDLTASVTNRTVSLPLSCVTTDFGLGVIYASKNQESKTTREKPMLVTLNSSLEHTYQKDFKSLREILSRKVAWQTEAVNAISQIICGCKTDSTRRNQASGIWLALLGPDKVGKKKVAMTLSEVFFGGKVNYICVDFGAEHCSLDDKFRGKTVVDYVTGELSRKPHSVVLLENVEKAEFPDQMRLSEAVSTGKIRDLHGRVISMKNVIVVVTSGIAKDNATDHVIKPVKFPEEQVLSARSWKLQIKLGDATKFGVNKRKYELETAQRAVKVQRSYLDLNLPVNETEFSPDHEAEDRDAWFDEFIEKVDGKVTFKPVDFDELAKNIQEKIGSHFERCFGSETHLELDKEVILQILAASWSSLSSGEEEGRTIVDQWMQTVLARSFAEAKQKYGSNPMLGVKLVASSSGLASGVELPAKVDVIW
B5: SMXL8 split-luciferase fusion (LCI) (protein, UniProt F4IGZ2 1-910)
chain: MPTAVNVAKQCLTAEASYALEEAVNVARRRGHSQTTSLHAISALLSLPTSVLRDACARVRNSAYSPRLQFKALDLCLSVSLDRIQSGHQLGSDDSPPVSNSLMAAIKRSQAHQRRLPENFRIYQEMSQSQNQNSLSCVKVELRQLILSILDDPVVSRVFGEAGFRSSELKLSIIRPVPHLLRYSSQQPLFLCNLTGNPEPNPVRWGFTVPSLNFNGDLDYRRISAVFTKDKGRNPLLVGVSAYGVLTSYLNSLEKNQTDGMILPTKLHGLTAVNIGSEISDQISVKFDKTYTDTRFHDLGKLAEQGSGPGLLLHYGDLRVFTNGEGNVPAANYIVNRISELLRRHGRRVWLIGATTSNEVYEKMMRRFPNVEKDWDLQLLTITSLKPCLPHNKSSLIGSFVPFGGFFSTTPSELKLPFSGFKTEITGPVSSISDQTQSTLPPWLQMTTRTDLNQKSSAKVVQTKEGLESVCGNKFTSSASASTCSAKSVTTDLNLRVSSVTTGSGLKKHLDSKDFSQPQSVSSYSFDNPRDLNAESFKIIYRRLTDMVSGQDEAARVISCALSQPPKSVTRRDVWLNLVGPDTVGKRRMSLVLAEIVYQSEHRFMAVDLGAAEQGMGGCDDPMRLRGKTMVDHIFEVMCRNPFCVVFLENIEKADEKLQMSLSKAIETGKFMDSHGREVGIGNTIFVMTSSSQGSATTTSYSEEKLLRVKGRQVEIRIETVSSLPMVRSVYGPTSVNKRKLMGLGNLQETKDTVESVKRLNRTTNGVLDLNLPAQETEIEEKYHCEENSNVWLMNLKNHKRLIEVPFKPFDFEGLAEKIKKSVKENFDKCVRSDCLLEVDPKIIERLLAAVYFSDSRKDIKELLENIMSPVFLRIKERYEITTSCVVKLVGRDLDIFLEDQMDLFFVKSQ

Legend:
[1] = target: T1, SPL15 split-luciferase fusion (LCI) (Arabidopsis thaliana); experiment: split reporter; luciferase complementation imaging (LCI; nLUC/cLUC) in N. benthamiana leaves, 2-3 days after injection at 25 °C, potassium luciferin
[2] = target: T2, SPL9 split-luciferase fusion (LCI) (Arabidopsis thaliana); experiment: as above
[3] = target: T3, SPL15 (yeast two-hybrid fusion) (Arabidopsis thaliana); experiment: two-hybrid; LexA/AD system in yeast strain EGY48 plus H18; SD/-Ura/-Trp/-His, then raffinose, galactose and X-gal for blue color development
[4] = target: T4, BRC1 (yeast two-hybrid fusion) (Arabidopsis thaliana); experiment: as above
[5] = target: T5, SPL9 (yeast two-hybrid fusion) (Arabidopsis thaliana); experiment: as above

Binder	binding [1]	binding [2]	binding [3]	binding [4]	binding [5]
B1	binds	binds	–	–	–
B2	binds	binds	–	–	–
B3	–	–	binds	no binding	binds
B4	binds	binds	–	–	–
B5	binds	binds	–	–	–
